Measured values as given in PubChem BioAssay AID2685 (National Center for Advancing Translational Sciences (NCATS), 2010).
The other results are listed elsewhere or left out. Further columns of the screen follow, without active or inactive calls. Compounds called inactive in the main read-out are mostly missing here. Potencies come from curve fits of mixed quality, noted in brackets.

Assay: qHTS Assay for Lipid Storage Modulators in Drosophila S3 Cells;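 as to cell number change: cells counted by Cell Tracker Red CMTPX staining in the red channel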
Details: BODIPY lipid droplet fluorescence, 18-24 h; for cell number change: measured here: cell count max response, cells fed with added oleic acid
In short: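 Laser-scanning cytometry quantifies lipid droplet accumulation (500–530 nm total intensity; droplet/cell object ratio) in oleic acid-fed (400 uM added) Drosophila S3 cells treated with a concentration series. 20 uM Triacsin C defined 100% inhibition.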

[1] = measured here: lipid fluorescence (Fed channel) AC50, cells fed with added oleic acid
[2] = measured here: cell number channel AC50, cells fed with added oleic acid

SMILES | cell number change | AC50 [1] | AC50 [2]
O=c1[nH]c(O)c(/C=C2/C=CC(c3cc(Cl)ccc3Cl)=N2)c(=O)[nH]1 | 0.915% | 4.61 µM [falling, single point] | –
FC(F)(F)c1ccc(NC2=NCCCS2)cc1 | -8.45% | – | –
O=C(c1cc([N+](=O)[O-])ccc1N1CCNCC1)N1CCOCC1 | -4.68% | 0.0731 µM [rising, full curve, poor fit] | –
CC(C)c1oc(=O)cc2c1[C@@H](O)[C@H]1OC(=O)[C@@]3(C)CC[C@@H](O)[C@@]2(C)C13 (some centres not stated) | -20.5% | 9.2 µM [falling, partial curve] | –
C[N+]1=C(/C=C/Nc2ccccc2)C(C)(C)c2ccccc21 | -36% | 23.1 µM [falling, partial curve, poor fit] | 8.2 µM [falling, partial curve, poor fit]
CCOc1ccc(N2C(=O)NC(=O)/C(=C\c3cc(OC)c(OC)cc3[N+](=O)[O-])C2=O)cc1 | -7.41% | 4.61 µM [falling, full curve] | –
CCC(=Nc1ccccc1NC(C)=O)c1c(O)n(C)c(=O)n(C)c1=O | -140% | 0.58 µM [falling, single point] | 18.4 µM [falling, partial curve]
Cc1nn(Cc2ccccc2)c(Cl)c1C(=O)NC1CCCc2ccccc21 (configuration not stated) | -24.1% | 20.6 µM [falling, single point] | –
O=C(COc1ccc(Cl)cc1)NCCc1cnc[nH]1 | 46.5% | – | 32.6 µM [rising, partial curve, poor fit]
Cc1ccccc1N1C(=O)NC(=O)/C(=C\c2cc(Br)c(N3CCOCC3)o2)C1=O | -31.5% | – | 8.2 µM [falling, partial curve, poor fit]
CCN(CC)C(=O)c1ccc(NC(=O)c2cccc(C(F)(F)F)c2)cc1 | 58% | – | –
CC(=NCC1CCCO1)c1c(O)n(Cc2ccccc2)c(=O)[nH]c1=O (configuration not stated) | 48.8% | 16.4 µM [rising, partial curve, poor fit] | 14.6 µM [rising, partial curve, poor fit]
O=C(O)c1cc2ccccc2oc1=O | 8.24% | 0.13 µM [falling, full curve] | –
COC(=O)C1=C(c2ccc(F)cc2OCc2ccccc2)C[C@@H]2CC[C@H]1N2C(=O)NCCOc1ccccc1 | -6.51% | – | 7.31 µM [falling, single point]
COC(=O)c1c(C)n(Cc2ccco2)c2ccc(O)cc12 | 20.2% | 6.51 µM [rising, single point] | –
Cc1cccc(N2C(=O)NC(=O)/C(=C/c3ccc(N4CCOCC4)cc3)C2=O)c1 | 61.2% | 2.91 µM [falling, single point] | –
N=c1c2c(n(Cc3ccc(Cl)cc3Cl)c3c1CCC3)CCCC2 | -47.7% | – | 29.1 µM [falling, single point]
c1ccc(CC2CCCCN2)cc1 (configuration not stated) | 14.8% | 13 µM [rising, partial curve] | –
COC(=O)C1=C(c2cccc3c2S(=O)(=O)c2ccccc2-3)C[C@@H]2CC[C@H]1N2C(=O)N1CCc2cc(OC)c(OC)cc2C1 | -47.3% | 29.1 µM [falling, single point] | 0.103 µM [falling, full curve, poor fit]
S=P(Nn1cnnc1)(c1ccc(Br)cc1)c1ccc(Br)cc1 | -60.4% | 29.1 µM [falling, single point] | 29.1 µM [falling, single point]

SMILES | cell number change | AC50 [1] | AC50 [2]
Cc1cc(/C=C2\C(=O)NC(=O)N(c3cccc(F)c3)C2=O)c(C)n1-c1cc(C(=O)O)cc(C(=O)O)c1 | -41.3% | 0.0058 µM [falling, full curve, poor fit] | –
O=Cc1cn(Cc2ccccc2F)c2ccccc12 | -17.5% | 23.1 µM [falling, single point] | –
N#CC1(c2ccccc2)CCN(C2CC(=O)N(c3ccc(F)cc3)C2=O)CC1 (configuration not stated) | -130% | – | –
Cc1ccsc1CNCCc1ccccc1F | -18.4% | – | –
COc1cc(C(C#N)N2CCCCC2)ccc1O (configuration not stated) | – | – | 4.61 µM [falling, full curve]
CC(=O)OC1N=C(c2ccccc2)c2ccccc2NC1=O (configuration not stated) | -2.07% | – | –
CC(C)N1CCN(c2ccc(O)cc2)CC1 | 36.7% | 29.1 µM [rising, single point] | 18.4 µM [rising, single point]
COc1ccc(CCNCc2sccc2C)cc1OC | -6.95% | – | –
O=C(NCCCn1ccnc1)C(Cl)(Cl)Cl | 16.9% | 0.0058 µM [falling, full curve, poor fit] | –
COc1ccccc1N1CCN(Cc2c(F)cccc2Cl)CC1 | -13.1% | 0.0058 µM [falling, full curve, poor fit] | –
Oc1cc(O)cc(/C=C/c2ccc(O)cc2O)c1 | -31.2% | – | 29.1 µM [falling, single point]
CN(C)C(CNC(=O)Cc1ccc(Br)cc1)c1ccccc1 (configuration not stated) | 23.5% | 0.206 µM [rising, single point] | –
Cn1cc(C(=O)N2CCOCC2)c2ccccc21 | -33.9% | – | –
Cc1cc(OCC(=O)NCc2ccncc2)c2c3c(c(=O)oc2c1)CCCC3 | -24.1% | 29.1 µM [falling, single point] | –
O=C(NC(Cc1cnc[nH]1)C(=O)O)c1ccccc1 (configuration not stated) | -39.7% | – | –
CN(C)c1ccc(C(=O)N/N=C/C23CC[C@@H](O)CC2(O)CC[C@@H]2[C@@H]3CCC3(C)C(C4=CC(=O)OC4)CCC23O)cc1 (some centres not stated) | – | 0.366 µM [rising, partial curve, poor fit] | 0.259 µM [rising, full curve, poor fit]
CCC1C(C#N)=C(N)Oc2c1c(=O)oc1ccccc21 (configuration not stated) | 23.4% | – | –
COc1ccc(N/N=C/c2c(O)n(-c3ccc(C)c(C)c3)c(=O)[nH]c2=O)cc1 | 7.45% | 1.84 µM [rising, partial curve] | –
O=[N+]([O-])c1cc(Cl)c(O)c(-[n+]2c(-c3ccccc3)cc(-c3ccccc3)cc2-c2ccccc2)c1 | -4.14% | 29.1 µM [falling, single point] | –
O=c1[nH]c(=O)n(-c2cccc(Cl)c2)c(O)c1C=NCCN1CCCCC1 | -5.21% | 0.164 µM [falling, full curve, poor fit] | –

Shown with tabs: part of the list above.
SMILES	cell number change	AC50 [1]	AC50 [2]
CC(C)c1oc(=O)cc2c1[C@@H](O)[C@H]1OC(=O)[C@@]3(C)CC[C@@H](O)[C@@]2(C)C13 (some centres not stated)	-20.5%	9.2 µM [falling, partial curve]	–
C[N+]1=C(/C=C/Nc2ccccc2)C(C)(C)c2ccccc21	-36%	23.1 µM [falling, partial curve, poor fit]	8.2 µM [falling, partial curve, poor fit]
CCOc1ccc(N2C(=O)NC(=O)/C(=C\c3cc(OC)c(OC)cc3[N+](=O)[O-])C2=O)cc1	-7.41%	4.61 µM [falling, full curve]	–

(listing goes on)

SMILES | cell number change | AC50 [1] | AC50 [2]
CCSc1nnc([C@@H](N)Cc2c[nH]c3ccccc23)o1 | -9.34% | 3.26 µM [falling, full curve, poor fit] | 6.51 µM [falling, partial curve, poor fit]
C=Cn1ccnc1P(=S)(c1ccccc1)c1nccn1C=C | -25.4% | – | –
CC1=NN=C(c2ccc(N)cc2)c2cc3c(cc2C1)OCO3 | 51.7% | 0.82 µM [rising, full curve] | 0.517 µM [rising, full curve]
O=C(O)c1cc[c]([Hg][Cl])cc1 | -31.7% | – | –
Cc1nn(CC(=O)N2CCC3(CC2)OCCO3)c(=O)c2cc3ccccc3n12 | 59.6% | 6.51 µM [falling, single point] | 13 µM [rising, partial curve, poor fit]
CC(C)CC(C)N (configuration not stated) | 1.1% | 18.4 µM [rising, single point] | –
CC(=Nc1ccc2c(c1)CCC2)c1c(O)n(C)c(=O)n(C)c1=O | -30.9% | – | 2.31 µM [falling, full curve]
C/C=C(\C)C(=O)N[C@@H](c1ccccc1)[C@@H](O)C(=O)O[C@H]1C[C@@]2(O)[C@@H](OC(=O)c3ccccc3)C3[C@](C)(C(=O)[C@H](OC(C)=O)C(=C1C)C2(C)C)[C@H](O)C[C@H]1OC[C@@]31OC(C)=O (some centres not stated) | -23.9% | 1.3 µM [rising, partial curve] | –
CN=C(SCc1ccccc1)c1c(O)n(C)c(=O)n(C)c1=O | 24.8% | 0.164 µM [rising, full curve] | –
O=C(c1cc(S(=O)(=O)N2CCOCC2)ccc1F)N1CCC2(CC1)OCCO2 | 2.64% | – | –
Cc1ccc(N(C)C(=O)Oc2ccc(C(=O)c3ccc(Cl)cc3)cc2)cc1 | -62.8% | – | 20.6 µM [falling, single point]
C=CCn1c(O)c(C(C)=NCCC(c2ccccc2)c2ccccc2)c(=O)[nH]c1=O | 7.79% | 3.26 µM [rising, full curve, poor fit] | –
CC12CCCCC1N(O)CN2O (configuration not stated) | 30.8% | – | 1.64 µM [rising, full curve]
CCCCCn1c(=O)c(C(=O)NCc2ccccn2)c(O)c2ccccc21 | -2.59% | 0.0651 µM [rising, full curve, poor fit] | –
O=C1NC(=O)N(c2ccc3c(c2)OCO3)C(=O)/C1=C/c1ccc(N2CCCCC2)o1 | 29.1% | – | –
COc1ccc(CCN(C)Cc2c(F)cccc2F)cc1OC | 6.42% | 29.1 µM [rising, single point] | –
O=C(COC(=O)Cc1ccccc1)NCCNC(=O)COC(=O)Cc1ccccc1 | -23% | 4.61 µM [falling, partial curve, poor fit] | 4.11 µM [falling, partial curve, poor fit]
CC(=O)OC1(c2ccc(C)cc2)CN2CCC1c1ccccc12 (configuration not stated) | 6.72% | 0.0103 µM [rising, full curve, poor fit] | –
CC(C(=O)c1ccc(Cl)cc1Cl)n1cncn1 (configuration not stated) | 5.41% | 29.1 µM [falling, single point] | 2.06 µM [rising, partial curve]
CCN1C(=O)N(CC)C(=O)C2(Cc3ccccc3N3CCN(c4ccccc4)CC32)C1=O (configuration not stated) | 14.5% | 23.1 µM [rising, single point] | –
